The experiment deals with T1, METTL14 (mouse retina) (mouse (endogenous in retina)) (UniProt Q3UIK4).
T1 sequence: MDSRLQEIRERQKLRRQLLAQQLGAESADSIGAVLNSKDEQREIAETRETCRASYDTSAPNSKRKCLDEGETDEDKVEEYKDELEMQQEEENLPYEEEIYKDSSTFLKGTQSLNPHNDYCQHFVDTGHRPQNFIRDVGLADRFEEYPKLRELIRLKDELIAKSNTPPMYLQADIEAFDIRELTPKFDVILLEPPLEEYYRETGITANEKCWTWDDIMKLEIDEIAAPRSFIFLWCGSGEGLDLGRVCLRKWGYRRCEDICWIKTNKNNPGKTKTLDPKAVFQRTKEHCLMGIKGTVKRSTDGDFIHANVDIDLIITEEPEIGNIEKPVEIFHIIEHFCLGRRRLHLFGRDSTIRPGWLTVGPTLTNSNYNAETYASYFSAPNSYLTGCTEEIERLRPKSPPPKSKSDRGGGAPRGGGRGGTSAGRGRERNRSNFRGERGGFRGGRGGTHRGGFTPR
The experiment is described as follows: co-IP; retinas of mice (in vivo); Western blotting. In general terms: Immunoblotting shows a protein as a band on a membrane.

No constants are given. Whether binding was seen depends on the method and setting. In cells and extracts the contact can be indirect. Some binding calls cover weakened binding; strength is not graded here.

B1: BARD1 (mouse retina) (protein, UniProt O70445 1-765)
chain: MPRRPPRVCSGNQPAPVPAMEPATDGLWAHSRAALARLEKLLRCSRCANILKEPVCLGGCEHIFCSGCISDCVGSGCPVCYTPAWILDLKINRQLDSMIQLSSKLQNLLHDNKDSKDNTSRASLFGDAERKKNSIKMWFSPRSKKVRYVVTKVSVQTQPQKAKDDKAQEASMYEFVSATPPVAVPKSAKTASRTSAKKHPKKSVAKINREENLRPETKDSRFDSKEELKEEKVVSCSQIPVMERPRVNGEIDLLASGSVVEPECSGSLTEVSLPLAEHIVSPDTVSKNEETPEKKVCVKDLRSGGSNGNRKGCHRPTTSTSDSCGSNIPSTSRGIGEPALLAENVVLVDCSSLPSGQLQVDVTLRRKSNASDDPLSLSPGTPPPLLNNSTHRQMMSSPSTVKLSSGMPARKRNHRGETLLHIASIKGDIPSVEYLLQNGNDPNVKDHAGWTPLHEACSHGHLKVVELLLQHNALVNTPGYQNDSPLHDAVKSGHIDIVKVLLSHGASRNAVNIFGVRPVDYTDNENIRSLLLLPEENESFSTSQCSIVNTGQRKNGPLVFIGSGLSSQQQKMLSKLETVLKAKKCMEFDSTVTHVIVPDEEAQSTLKCMLGILSGCWILKFDWVKACLDSKVREQEEKYEVPGGPQRSRLNREQLLPKLFDGCYFFLGGNFKHHPRDDLLKLIAAAGGKVLSRKPKPDSDVTQTINTVAYHAKPESDQRFCTQYIVYEDLFNCHPERVRQGKVWMAPSTWLISCIMAFELLPLDS
As to B1, the binding entry is given as “binds”.
